Data as given in PubChem BioAssay AID1259308 (NCATS, 2017)
Screen: 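Candidate targets for better recombinant protein yield in mammalian cells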 (primary screen). System: human HEK293 embryonic kidney cells stably expressing firefly luciferase (HEK-CMV-Luc2-Hygro). Knock-down reagent: single siRNA against human genes, 0.8 pmol siRNA per well. Timing: 72 h. Measurement: 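Luciferase light (ONE-Glo) measured on one replicate plate set and viability (CellTiter-Glo) on the other, scaled to a negative control siRNA, with robust z-scores and luciferase per cell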. Reading the numbers: total luciferase, z-score and total luciferase, % of control: higher = more reporter protein produced; luciferase per cell, z-score: higher = more reporter output per viable cell; viable cells, % of control: higher = more viable cells. Rule for the call: 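Active when the median/MAD z-score for overall luciferase is greater than 3; a gene was taken forward for validation with new siRNAs if at least two of its three siRNAs passed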. Calls: active = raised luciferase; inactive = no rise.
The whole screen tested about 59,000 reagents; this is an unselected part. About 1,510 of all reagents (2.6%) count as active. 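Calls use total luciferase alone and ignore viability, so some active siRNAs may act by altering cell number.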 Reagents against one gene are numbered here. Reagent sequences are not shown.

| target gene | reagent no. | total luciferase, z-score | total luciferase, % of control | luciferase per cell, z-score | viable cells, % of control | activity call |
| --- | --- | --- | --- | --- | --- | --- |
| HCRTR1 | 1 | 1.01 | 102 | 0.543 | 98.8 | inactive |
| HCRTR1 | 2 | 0.238 | 86.6 | 1.15 | 71.6 | inactive |
| HCRTR1 | 3 | -0.967 | 62.7 | -1.34 | 99.8 | inactive |
| UNC79 | 1 | 0.665 | 95.1 | 1.11 | 79.4 | inactive |
| UNC79 | 2 | 0.752 | 96.8 | 0.401 | 97.4 | inactive |
| UNC79 | 3 | -0.264 | 76.6 | -0.189 | 90 | inactive |
| CCDC57 | 1 | -0.316 | 75.6 | -0.245 | 90.1 | inactive |
| CCDC57 | 2 | -1.93 | 43.6 | -2.08 | 84.1 | inactive |
| CCDC57 | 3 | 1.49 | 111 | 0.93 | 97.5 | inactive |
| BIRC8 | 1 | 0.0656 | 83.2 | 0.0107 | 92.7 | inactive |
| BIRC8 | 2 | -0.536 | 71.2 | -0.853 | 99.6 | inactive |
| BIRC8 | 3 | 2.39 | 129 | 2.69 | 71.2 | inactive |
| WDR36 | 1 | 2.59 | 133 | 1.86 | 91.2 | inactive |
| WDR36 | 2 | -0.828 | 65.4 | -0.287 | 78.8 | inactive |
| WDR36 | 3 | -0.589 | 70.2 | -0.669 | 93.5 | inactive |
| MRPS5 | 1 | -0.395 | 74 | -0.983 | 107 | inactive |
| MRPS5 | 2 | 0.257 | 87 | -0.401 | 108 | inactive |
| MRPS5 | 3 | -0.13 | 79.3 | -0.539 | 102 | inactive |
| LYPD6 | 1 | -0.147 | 79 | -0.129 | 91.3 | inactive |
| LYPD6 | 2 | -0.54 | 71.1 | -0.0615 | 80.8 | inactive |
| LYPD6 | 3 | 0.0507 | 82.9 | 0.765 | 75.7 | inactive |
| YTHDF2 | 1 | 1.29 | 108 | 2.01 | 70.9 | inactive |
| YTHDF2 | 2 | 2.31 | 128 | 1.75 | 90.2 | inactive |
| YTHDF2 | 3 | 2.88 | 139 | 1.67 | 100 | inactive |
| LOC728660 | 1 | -1.35 | 55 | -0.93 | 78.5 | inactive |
| LOC728660 | 2 | -0.592 | 70.1 | 0.174 | 74.8 | inactive |
| LOC728660 | 3 | -0.012 | 81.6 | -0.0162 | 91.6 | inactive |
| TBR1 | 1 | 0.593 | 93.7 | 0.463 | 92.7 | inactive |
| TBR1 | 2 | -0.747 | 67 | 1.96 | 44.7 | inactive |
| TBR1 | 3 | 0.96 | 101 | 0.835 | 90.6 | inactive |
| LRRC74A | 1 | 1.25 | 107 | 1.5 | 80.4 | inactive |
| LRRC74A | 2 | 0.0397 | 82.7 | -0.0244 | 93 | inactive |
| LRRC74A | 3 | 0.581 | 93.4 | -0.139 | 108 | inactive |
| STOX1 | 1 | 0.459 | 91 | 0.413 | 91.2 | inactive |
| STOX1 | 2 | -0.0737 | 80.4 | 0.0586 | 88.5 | inactive |
| STOX1 | 3 | -0.158 | 78.7 | 0.0255 | 87.4 | inactive |

Laid out differently: entries from further up
{"target gene":"STOX1","reagent no.":1,"total luciferase, z-score":0.459,"total luciferase, % of control":91,"luciferase per cell, z-score":0.413,"viable cells, % of control":91.2,"activity call":"inactive"}
{"target gene":"STOX1","reagent no.":2,"total luciferase, z-score":-0.0737,"total luciferase, % of control":80.4,"luciferase per cell, z-score":0.0586,"viable cells, % of control":88.5,"activity call":"inactive"}
{"target gene":"STOX1","reagent no.":3,"total luciferase, z-score":-0.158,"total luciferase, % of control":78.7,"luciferase per cell, z-score":0.0255,"viable cells, % of control":87.4,"activity call":"inactive"}

The results go on:
| target gene | reagent no. | total luciferase, z-score | total luciferase, % of control | luciferase per cell, z-score | viable cells, % of control | activity call |
| --- | --- | --- | --- | --- | --- | --- |
| MPV17 | 1 | 0.221 | 86.3 | -0.107 | 99.2 | inactive |
| MPV17 | 2 | -0.864 | 64.7 | -0.47 | 81.8 | inactive |
| MPV17 | 3 | -0.167 | 78.6 | 0.895 | 69.3 | inactive |
| SYT11 | 1 | 0.149 | 84.9 | 0.593 | 81.1 | inactive |
| SYT11 | 2 | -0.0169 | 81.6 | -0.218 | 96.5 | inactive |
| SYT11 | 3 | -1.68 | 48.5 | -1.78 | 86.6 | inactive |
| STMN1 | 1 | 0.255 | 87 | 0.754 | 79.7 | inactive |
| STMN1 | 2 | 0.524 | 92.3 | 0.784 | 83.9 | inactive |
| STMN1 | 3 | 1.28 | 107 | 0.162 | 115 | inactive |
| PCDHA6 | 1 | 0.502 | 91.9 | 0.247 | 96.2 | inactive |
| PCDHA6 | 2 | -0.098 | 79.9 | -0.61 | 105 | inactive |
| PCDHA6 | 3 | -1.88 | 44.6 | -1.05 | 65.8 | inactive |
| OTP | 1 | 0.631 | 94.4 | 0.378 | 95.5 | inactive |
| OTP | 2 | -0.14 | 79.1 | -0.181 | 92.7 | inactive |
| OTP | 3 | 0.373 | 89.3 | 0.141 | 96.1 | inactive |
| PRM2 | 1 | -0.132 | 79.3 | 0.0642 | 87.1 | inactive |
| PRM2 | 2 | -1.4 | 54.1 | -1.2 | 82.9 | inactive |
| PRM2 | 3 | 0.226 | 86.4 | -0.325 | 105 | inactive |
| PPDPFL | 1 | 1.37 | 109 | 2.01 | 71.8 | inactive |
| PPDPFL | 2 | 0.192 | 85.7 | -0.0401 | 96.8 | inactive |
| PPDPFL | 3 | -0.38 | 74.3 | -1.04 | 109 | inactive |
